No constants are given. Whether binding was seen depends on the method and setting. In cells and extracts the contact can be indirect. Some binding calls cover weakened binding; strength is not graded here.
How the values were obtained:
Assay in all cases: co-IP
[1] = molecular target: Endogenous TRIM21 of HEK293T cells (human (endogenous in HEK293T)) (UniProt P19474)
[2] = molecular target: Human TRIM21, HA-tagged (pcDNA3.1-TRIM21-HA) (human) (UniProt P19474)
[3] = molecular target: Endogenous p65 of HEK293T cells (human (endogenous in HEK293T)) (UniProt Q04206)

Chains of the proteins cited; added tags and fusions are not shown.
UniProt P19474: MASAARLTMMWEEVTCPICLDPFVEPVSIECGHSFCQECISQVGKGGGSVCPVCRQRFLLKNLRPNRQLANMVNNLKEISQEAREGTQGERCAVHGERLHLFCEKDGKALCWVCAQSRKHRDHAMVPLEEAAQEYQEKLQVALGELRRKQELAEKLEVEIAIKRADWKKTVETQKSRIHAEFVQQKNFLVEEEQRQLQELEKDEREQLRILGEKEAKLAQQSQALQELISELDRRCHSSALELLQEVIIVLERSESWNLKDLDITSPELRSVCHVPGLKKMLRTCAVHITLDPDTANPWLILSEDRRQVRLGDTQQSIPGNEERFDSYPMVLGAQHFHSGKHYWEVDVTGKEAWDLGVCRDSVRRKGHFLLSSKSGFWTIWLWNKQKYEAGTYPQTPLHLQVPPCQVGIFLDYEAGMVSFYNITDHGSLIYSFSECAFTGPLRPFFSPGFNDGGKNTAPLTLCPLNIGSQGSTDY
UniProt Q04206: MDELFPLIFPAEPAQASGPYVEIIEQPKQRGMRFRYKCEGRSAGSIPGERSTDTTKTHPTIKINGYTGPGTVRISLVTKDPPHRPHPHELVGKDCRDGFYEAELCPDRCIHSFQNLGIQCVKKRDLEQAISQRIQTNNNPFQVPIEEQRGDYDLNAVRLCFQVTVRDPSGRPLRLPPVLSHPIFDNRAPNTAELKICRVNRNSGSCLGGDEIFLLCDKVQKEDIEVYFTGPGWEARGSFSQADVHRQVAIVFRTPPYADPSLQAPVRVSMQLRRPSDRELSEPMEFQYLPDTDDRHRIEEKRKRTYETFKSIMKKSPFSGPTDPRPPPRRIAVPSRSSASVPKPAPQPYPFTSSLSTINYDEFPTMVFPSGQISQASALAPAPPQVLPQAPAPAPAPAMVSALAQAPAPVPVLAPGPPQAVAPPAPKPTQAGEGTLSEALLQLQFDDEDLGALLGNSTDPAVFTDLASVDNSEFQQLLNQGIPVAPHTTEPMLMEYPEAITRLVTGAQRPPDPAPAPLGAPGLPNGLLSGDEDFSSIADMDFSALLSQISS
UniProt P25963: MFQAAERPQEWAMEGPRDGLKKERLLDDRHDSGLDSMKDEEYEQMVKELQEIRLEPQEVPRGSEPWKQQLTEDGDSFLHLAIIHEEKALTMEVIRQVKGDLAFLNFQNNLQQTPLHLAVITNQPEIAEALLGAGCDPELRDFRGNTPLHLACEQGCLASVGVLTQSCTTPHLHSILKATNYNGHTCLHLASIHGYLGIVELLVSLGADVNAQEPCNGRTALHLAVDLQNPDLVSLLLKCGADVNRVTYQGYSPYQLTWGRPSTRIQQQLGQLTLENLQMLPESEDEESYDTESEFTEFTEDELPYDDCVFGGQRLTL

Row | Substance | binding [1] | binding [2] | binding [3]
1 | Endogenous IκB-α of HEK293T cells (from UniProt P25963 1-317) (other; other documents disagree on this pair) | binds | binds | 
2 | Human TRIM21, HA-tagged (pcDNA3.1-TRIM21-HA) (from UniProt P19474 1-475) (enzyme) |  |  | binds

From PMC8187923
